Laboratory results from US6355481.
These are yes or no findings as the source states them, for the method shown. Some binding calls cover weakened binding; strength is not graded here.

Sequences of proteins named here, by UniProt entry; tags and fusion partners are left off. Residues count along the entry.
UniProt P42858, residues 1-253: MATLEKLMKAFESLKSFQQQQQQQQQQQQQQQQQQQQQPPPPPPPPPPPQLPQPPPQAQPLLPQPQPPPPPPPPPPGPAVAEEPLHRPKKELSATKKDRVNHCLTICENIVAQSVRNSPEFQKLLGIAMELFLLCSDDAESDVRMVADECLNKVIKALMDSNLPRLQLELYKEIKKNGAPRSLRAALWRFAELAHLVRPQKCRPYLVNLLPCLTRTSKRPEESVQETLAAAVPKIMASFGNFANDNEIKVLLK

Biological target: N-terminal region of human huntingtin protein (amino acids 1-253) with 23 glutamines (HD-23Q) (human) (UniProt P42858)
Experiment: colocalisation by double immunofluorescence in transfected PC12 cells

binding: binds
B1: HAP1-A (Huntingtin Associated Protein 1-A) (protein, UniProt P54256-2 1-599, looked up)
chain: MRPKDQVQSSAGDGTGSGDPATGTPTTQPAADPAPEPSAEPKPAPAQGTGSGQKSGSRTKTGGSFCRSRIRGDSDAPWTRYIFQGPYGPRATGLGTGRAEGIWKTPAAYIGRRPGVSGPERAAFIRELQEALCPNPLPRKKITEDDIKVMLYLLEEKERDLNTAARIGQSLVKQNSVLMEENNKLETMLGSAREEILHLRKQVNLRDDLLQLYSDSDDDEEDEEDEEEEEGEEEEREGQRDQDQQHDHPYGAPKPPPKAETLHHCPQLEALKQKLKLLEEENDHLREEASHLDNLEDKEQMLILECVEQFSEASQQMAELSEVLVLRLEGYERQQKEITQLQAEITKLQQRCQSYGAQTEKLQQQLASEKGVHPESLRAGSHMQDYGSRPRERQEDGKSHRQRSSMPAGSVTHYGYSVPLDALPSFPETLAEELRTSLRKFITDPAYFMERCDTRCREERKKEQGTMPPPPVQDLKPPEDFEAPEELVPEEELGAIEEVGTAEDGPAEETEQASEETEAWEEVEPEVDEATRMNVVVSALEASGLGPSHLDMKYVLQQLSNWQDAHSKRQQKQKVVPKGECSRRGHPPASGTSYRSSTL
